Measurements reported in publication PMC7819943, “Rice protein-binding microarrays: a tool to detect cis-acting elements near promoter regions in rice”.
The list shows a part of the results.

Amino acid sequences for entries named in this document (tags omitted).
UniProt Q0JBA9, entry or part of it: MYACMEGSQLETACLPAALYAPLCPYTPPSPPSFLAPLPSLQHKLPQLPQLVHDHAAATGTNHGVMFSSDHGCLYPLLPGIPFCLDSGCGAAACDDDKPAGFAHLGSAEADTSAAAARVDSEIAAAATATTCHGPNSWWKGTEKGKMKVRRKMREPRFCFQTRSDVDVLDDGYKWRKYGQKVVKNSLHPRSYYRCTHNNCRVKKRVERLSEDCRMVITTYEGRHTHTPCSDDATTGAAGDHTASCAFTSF

Target: OsWRKY34 (Oryza sativa, UniProt Q0JBA9 1-250)
Experiment: protein-binding microarray (RPBM); PBS, 2% BSA, 51.3 ng/ul salmon testes DNA, 50 uM zinc acetate, 200 nM TF, 25 C, 1 h; high values mean tight binding
Details: protein: recombinant; tags: N-terminal polyhistidine and DsRed monomer fusion (pET32a); label: CyDye5-dUTP incorporated in the synthesized complementary strand; 3' TTTTT single-stranded linker to array surface; dsDNA, one strand shown
Method in brief: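 Using Ni–NTA, transcription factors fused N-terminally to polyhistidine and DsRed were purified after expression in E. coli BL21-CodonPlus. These were incubated at 200 nM with a blocked, double-stranded custom Agilent array for 1 h at 25 °C in a buffer containing 50 µM zinc acetate, and the array was washed. The binding signal is per-feature fluorescence intensity (arbitrary units) on an Axon 4000B scanner.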

Sequence | binding signal
GAGGGCCCCTCGTCGGGGTCAATGGGCGGTGGGGCCAGACCGGAGTCACCTAGTGCAG | 10000 fluorescence intensity (a.u.)
ATCTAGTTGTATTGTTGGGTCCTATATGCTTCACATCACTCGGAGTCACCTAGTGCAG | 9940 fluorescence intensity (a.u.)
TGCAGCACGGGGTAGTTGGGTTGGGTCCGGACGCGGCGCGCGGAGTCACCTAGTGCAG | 8830 fluorescence intensity (a.u.)
ATAGGGTTCATTGAAATATCATAAGCTTCTATTGTTGTAACGGAGTCACCTAGTGCAG | 8350 fluorescence intensity (a.u.)
TTTTATCGTACATGCTACAGTGCCTACTTGTGTATTAATTCGGAGTCACCTAGTGCAG | 8280 fluorescence intensity (a.u.)
CTAGGTCGAGGTAGGGCTCGGTTTCCTCGCATCTTGCAACCGGAGTCACCTAGTGCAG | 8140 fluorescence intensity (a.u.)
GCTGTTCGTTCATGATCTTGTTCCATTCTACAGGGGTCGTCGGAGTCACCTAGTGCAG | 9330 fluorescence intensity (a.u.)
TACTACCACTAAATATCTAGCATCCTTATCCTCTTCTTTGCGGAGTCACCTAGTGCAG | 10900 fluorescence intensity (a.u.)
TACTTCCTGATCGAAGCATCTTATCTCTAGCTGTCCCATACGGAGTCACCTAGTGCAG | 8870 fluorescence intensity (a.u.)
GTACTTTATCTTATAACATTTTATTTTGAATCGATTAGGACGGAGTCACCTAGTGCAG | 8170 fluorescence intensity (a.u.)
CTCCTCTGAACCGCCATCAGCCACCACCTCTCGCCGCCTACGGAGTCACCTAGTGCAG | 13600 fluorescence intensity (a.u.)
GGCGATGTGCTGCTTTAATTTGGCGATCCGGTTAAGGAGACGGAGTCACCTAGTGCAG | 8070 fluorescence intensity (a.u.)
CCCTTAATTAATTAAAACCGGTCACAGTATGTCCTTTAATCGGAGTCACCTAGTGCAG | 10700 fluorescence intensity (a.u.)
CATGCATCCATATTAGATTGTTTGCGAAATTAATTATTCACGGAGTCACCTAGTGCAG | 8470 fluorescence intensity (a.u.)
ACTCTCGACTACTTGGCTTCTAATTTACAGTAATTTTATCCGGAGTCACCTAGTGCAG | 10300 fluorescence intensity (a.u.)
GCCGCCTCGCCTCGCCGCCGCCTCGCCTCCTCCGCGAGCACGGAGTCACCTAGTGCAG | 9630 fluorescence intensity (a.u.)
AATTTGAATCCATGTTGCTGTCTCGTTATTGGTGTGTTACCGGAGTCACCTAGTGCAG | 11800 fluorescence intensity (a.u.)
GCCACCTCGCCCCATCACCCTCTCCCTCCACCACACTACACGGAGTCACCTAGTGCAG | 8070 fluorescence intensity (a.u.)
TCATCGGTGCGGATCGGGCGTATTCTCTTTCGTCATACCTCGGAGTCACCTAGTGCAG | 10200 fluorescence intensity (a.u.)
ACTCTGTTTGATCCATTTGAGGGGAAGAGGGGCCAAGGTTCGGAGTCACCTAGTGCAG | 9560 fluorescence intensity (a.u.)
ACATATCTCTCGCTCACTTGCTTGCTTGCTTACGTCTCTCCGGAGTCACCTAGTGCAG | 9970 fluorescence intensity (a.u.)
GCTGCAGCACTGCACGCGTTCCTGCTCCTTGTGTTCCTCTCGGAGTCACCTAGTGCAG | 9620 fluorescence intensity (a.u.)
ATGTAATATGGGTGATTTATACTCTCTCCGTTTCAACTTACGGAGTCACCTAGTGCAG | 9250 fluorescence intensity (a.u.)
ACCCACACCTCGTCCCCGTCACCTCCTATATCATCGTCATCGGAGTCACCTAGTGCAG | 11700 fluorescence intensity (a.u.)
TGGGCGGGCGAGGAGGTGTGTCACGTCAGGATTTTGATACCGGAGTCACCTAGTGCAG | 8350 fluorescence intensity (a.u.)
TTCTTTTCGGTTGATTGTTTTTCTTTGTATTTCAGTGTTGCGGAGTCACCTAGTGCAG | 9180 fluorescence intensity (a.u.)
AACCGCCGATCTCCACCGTCCACGTACCCCGGCCGACCAACGGAGTCACCTAGTGCAG | 11100 fluorescence intensity (a.u.)

Sequence | binding signal
TAAAAATTCAAACCTTCTACACTGGTACACACGTTCTCTCCGGAGTCACCTAGTGCAG | 8340 fluorescence intensity (a.u.)
ATTTCGAGTTGGGACCTTCATGCAATCATGCCCCTTGTTTCGGAGTCACCTAGTGCAG | 8300 fluorescence intensity (a.u.)
TGAATCAGCTCTCTTCCCCGCGATCTCTCCTACTTTTCCTCGGAGTCACCTAGTGCAG | 8290 fluorescence intensity (a.u.)
CTATATATTTCTAGTCATTTCCAGTATCCATGCACATAAACGGAGTCACCTAGTGCAG | 9000 fluorescence intensity (a.u.)
TGTTGCCTCCTCATCCTCCACCGCTGTCCCCAGGCGACGACGGAGTCACCTAGTGCAG | 9080 fluorescence intensity (a.u.)
AACAGTCACTGACACGTGGGCTCCAGCATTACCTGTCCCCCGGAGTCACCTAGTGCAG | 8200 fluorescence intensity (a.u.)
CGGCATCTTCTCGTTCATTCTCATCCTCTTTAGCCCAAAGCGGAGTCACCTAGTGCAG | 9060 fluorescence intensity (a.u.)
CTACTTATCATCCATTTAAACATGCTACTAGTCATTCTTCCGGAGTCACCTAGTGCAG | 10200 fluorescence intensity (a.u.)
ATTAATAGATTTGTCTCGTAAATTAACCTCCATCTATTTACGGAGTCACCTAGTGCAG | 8080 fluorescence intensity (a.u.)
GTGCGTGGGGCGAAGGGAGGGGAAGAAGAAGAAGGAGAAGCGGAGTCACCTAGTGCAG | 8080 fluorescence intensity (a.u.)
ATTCTTTGCCTTCCTGTCCATATATTCTTCCATGCCTCCCCGGAGTCACCTAGTGCAG | 8710 fluorescence intensity (a.u.)
ATCAGCATTGTCTTATACGCCTTCACCCACTAGCTCAACCCGGAGTCACCTAGTGCAG | 8580 fluorescence intensity (a.u.)
TATATATATATATATATTGCGAGGATTGTTATAATAAAAGCGGAGTCACCTAGTGCAG | 8600 fluorescence intensity (a.u.)
GCTCCATGCATGCCTCCACATCTCCATGACACAAGTCAGACGGAGTCACCTAGTGCAG | 9780 fluorescence intensity (a.u.)
TGCTAACATGTGCTTCCCGTGCTGTCTATTGCTTCCACTTCGGAGTCACCTAGTGCAG | 8550 fluorescence intensity (a.u.)
TTCTTTTCCTATCATTTGATTCATCGTTAAATATATTTTTCGGAGTCACCTAGTGCAG | 8090 fluorescence intensity (a.u.)
ATCAACCGCCGCTAATACGTGCCAATCTTGCTCTTTTTGACGGAGTCACCTAGTGCAG | 8260 fluorescence intensity (a.u.)
CCCTCCGCGCGCGCATCCCGCCGTCGCCGCCGTCCCCTACCGGAGTCACCTAGTGCAG | 10900 fluorescence intensity (a.u.)
TTCCGATCAATTTTTTTCGTCCGTCGTCCGTGTTTGAATCCGGAGTCACCTAGTGCAG | 13000 fluorescence intensity (a.u.)
GCCTATTTTGGATCTTTCACACGTGTTCGCTGGGGAAACTCGGAGTCACCTAGTGCAG | 8140 fluorescence intensity (a.u.)
TACGCTGCCGTCGCTGTGGTCACTCTGCCTCACCTCACCTCGGAGTCACCTAGTGCAG | 8130 fluorescence intensity (a.u.)
GTCTTCTCGTTTTTCCCGACTTCCCTTATCCTCTCTCTCTCGGAGTCACCTAGTGCAG | 8420 fluorescence intensity (a.u.)
TACATTCCTTTTTCTTTTCGTCGGCTGTCCTTCACCGGCCCGGAGTCACCTAGTGCAG | 9580 fluorescence intensity (a.u.)
GCCAGAAAACGAGCGCGACTTAACCTCTATGCGCTAATTACGGAGTCACCTAGTGCAG | 8170 fluorescence intensity (a.u.)
TGCGGTCTCGTGTTCAATCCTCAACACGCTAGCAATTTCTCGGAGTCACCTAGTGCAG | 8100 fluorescence intensity (a.u.)
CCGGTTGCCTGCTGTGCGCCTATCAGATATTCAAGTTAATCGGAGTCACCTAGTGCAG | 8410 fluorescence intensity (a.u.)
TCCCACCCCGCATTGCCATTTCCAGCTGTTGTTCTTGATTCGGAGTCACCTAGTGCAG | 10200 fluorescence intensity (a.u.)

Some of the entries so far, with tabs.
Sequence	binding signal
ATCAGCATTGTCTTATACGCCTTCACCCACTAGCTCAACCCGGAGTCACCTAGTGCAG	8580 fluorescence intensity (a.u.)
GCCAGAAAACGAGCGCGACTTAACCTCTATGCGCTAATTACGGAGTCACCTAGTGCAG	8170 fluorescence intensity (a.u.)
